# Measurements published in paper PMC11904043.
# Chains of the proteins cited; added tags and fusions are not shown.
# UniProt P54646: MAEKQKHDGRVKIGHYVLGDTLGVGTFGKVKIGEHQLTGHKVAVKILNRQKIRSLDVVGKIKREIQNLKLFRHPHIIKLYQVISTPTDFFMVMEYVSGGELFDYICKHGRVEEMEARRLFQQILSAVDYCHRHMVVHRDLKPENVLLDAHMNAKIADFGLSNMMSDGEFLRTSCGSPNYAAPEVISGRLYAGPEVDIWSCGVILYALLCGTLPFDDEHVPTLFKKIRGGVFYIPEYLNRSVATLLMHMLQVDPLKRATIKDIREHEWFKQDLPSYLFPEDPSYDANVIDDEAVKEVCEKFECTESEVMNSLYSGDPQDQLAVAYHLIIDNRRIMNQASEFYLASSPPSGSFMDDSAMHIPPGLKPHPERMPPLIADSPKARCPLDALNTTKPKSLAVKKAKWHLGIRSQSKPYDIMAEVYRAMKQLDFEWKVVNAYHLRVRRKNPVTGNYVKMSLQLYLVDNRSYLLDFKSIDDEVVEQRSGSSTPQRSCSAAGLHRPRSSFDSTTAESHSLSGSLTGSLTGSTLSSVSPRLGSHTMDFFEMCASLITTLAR
# UniProt Q13131: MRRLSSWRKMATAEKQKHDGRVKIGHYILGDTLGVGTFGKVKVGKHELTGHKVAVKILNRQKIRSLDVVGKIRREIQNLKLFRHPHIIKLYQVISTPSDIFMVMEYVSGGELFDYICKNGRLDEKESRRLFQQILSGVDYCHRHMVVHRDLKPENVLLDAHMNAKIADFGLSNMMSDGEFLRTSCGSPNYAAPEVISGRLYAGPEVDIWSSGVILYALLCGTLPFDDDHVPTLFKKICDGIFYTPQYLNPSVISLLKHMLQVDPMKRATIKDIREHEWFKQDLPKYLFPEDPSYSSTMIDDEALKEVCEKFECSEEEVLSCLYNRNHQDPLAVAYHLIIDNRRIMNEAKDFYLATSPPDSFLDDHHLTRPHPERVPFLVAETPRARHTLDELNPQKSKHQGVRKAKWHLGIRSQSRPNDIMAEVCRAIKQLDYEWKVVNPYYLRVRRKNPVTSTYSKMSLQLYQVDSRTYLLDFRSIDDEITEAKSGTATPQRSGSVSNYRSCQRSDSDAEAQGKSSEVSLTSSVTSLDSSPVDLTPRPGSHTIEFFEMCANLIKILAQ
# These are yes or no findings as the source states them, for the method shown. Binding seen in cells or lysates may run through a third protein. Some results given as binding are weak or reduced against the parent protein; the word gives no strength.
# B1: TBK1 (protein, UniProt Q9UHD2 1-729)
# chain: MQSTSNHLWLLSDILGQGATANVFRGRHKKTGDLFAIKVFNNISFLRPVDVQMREFEVLKKLNHKNIVKLFAIEEETTTRHKVLIMEFCPCGSLYTVLEEPSNAYGLPESEFLIVLRDVVGGMNHLRENGIVHRDIKPGNIMRVIGEDGQSVYKLTDFGAARELEDDEQFVSLYGTEEYLHPDMYERAVLRKDHQKKYGATVDLWSIGVTFYHAATGSLPFRPFEGPRRNKEVMYKIITGKPSGAISGVQKAENGPIDWSGDMPVSCSLSRGLQVLLTPVLANILEADQEKCWGFDQFFAETSDILHRMVIHVFSLQQMTAHKIYIHSYNTATIFHELVYKQTKIISSNQELIYEGRRLVLEPGRLAQHFPKTTEENPIFVVSREPLNTIGLIYEKISLPKVHPRYDLDGDASMAKAITGVVCYACRIASTLLLYQELMRKGIRWLIELIKDDYNETVHKKTEVVITLDFCIRNIEKTVKVYEKLMKINLEAAELGEISDIHTKLLRLSSSQGTIETSLQDIDSRLSPGGSLADAWAHQEGTHPKDRNVEKLQVLLNCMTEIYYQFKKDKAERRLAYNEEQIHKFDKQKLYYHATKAMTHFTDECVKKYEAFLNKSEEWIRKMLHLRKQLLSLTNQCFDIEEEVSKYQEYTNELQETLPQKMFTASSGIKHTMTPIYPSSNTLVEMTLGMKKLKEEMEGVVKELAENNHILERFGSLTMDGGLRNVDCL
# Tests used:
# [1] = target: PRKAA2-flag (UniProt P54646); experiment: co-IP; Huh7 cells cotransfected with TBK1 and PRKAA1-flag or PRKAA2-flag, with or without HEV infection for 48 h; lysate incubated with the indicated primary antibody overnight at 4 °C, then protein A/G-agarose beads for 4 h; Western blotting
# [2] = target: PRKAA1-flag (UniProt Q13131); experiment: as above
binder,measurement,setting,value
B1,binding,[1],binds
same,binding,[2],binds
